In US20250288553A1, “Antimicrobial Compositions and Uses for Treatment of Clostridioides difficile, Mycobacterium tuberculosis, and Enterococcus faecalis Infection” (priority 2022, published 2025):
Values after ≈ are worked out from the molar mass of the structure shown. At least one structure is not confirmed: it was looked up by name or label, or the drawing left a doubt. Some of these results come from one statement about several compounds together. Some ranges recur; such a range may be that of the whole group of compounds.

Assays:
[1] = test system: dormant Mtb-lux (Mycobacterium tuberculosis CDC1551 with pMV306hsp+LuxG13); assay type: cell-based; conditions: for Activity against dormant versus replicating Mtb-lux (in words): comparison of dormant and replicating Mtb; for R/D (MICR/MICD, Mtb-lux): ratio replicating MIC to dormant MIC
[2] = test system: Clostridioides difficile NAP1; conditions: (+)-Puupehenone obtained from a commercial supplier, same strain; cited from earlier work
[3] = test system: TcdA production in C. difficile NAP1; assay: Toxin analysis: extracellular TcdA of C. difficile NAP1 at sub-MICs, western blot; assay type: cell-based, Clostridioides difficile; conditions: for Concentration at which exotoxin production was greatly reduced: C. difficile
Description: After a 48 h incubation of NAP1 challenged with several dilutions of each compound, extracellular toxin in spent media derived from triplicate cultures was assessed with western blots using a monoclonal antibody against TcdA. Semi-quantitative analysis of toxin levels was performed via densitometry of TcdA band intensity with respect to total protein as measured by the Bradford assay. Semi-quantitative plots are shown below each representative blot. (a) Toxin production in BHIS (NAP1) and BHIS with 5% DMSO (vehicle). (b) Toxin production from cultures challenged with sub-MICs of fidaxomicin, (c) vancomycin, and (d-j) (+)-puupehenone and selected derivatives. Data points represent the means of adjusted toxin levels derived from triplicate cultures, while error bars represent standard deviations. Statistical analysis was performed in GraphPad Prism 8 using unpaired t-tests. *P<0.05; **P<0.01.
To account for changes in biomass, a semi-quantitative analysis of TcdA production was performed by normalizing the target bands from representative western blots to the amount of total protein in each sample.
Toxin analysis. Toxin production was determined by analyzing the amount of extracellular toxin in the cultures from the ASTs described above. At 48 h, total protein of each culture was determined with the Bradford assay using bovine serum albumin (BSA) as a standard.^53 Cultures were then centrifuged at 5,000×g for 5 minutes to clear the supernatants which were separately collected and frozen at −20° C. After thawing at room temperature, cell-free supernatants were mixed 1:1 with 2× Laemmli buffer and incubated in a sand bath at 100° C. for 5 minutes. Twenty microliters of denatured samples were loaded onto 7.5% Tris-glycine gels and electrophoresed at 200 V for 1 h. After electrophoresis, samples were transferred to polyvinylidene difluoride membranes at 4° C. overnight at 30 V. Membranes were incubated in a blocking buffer (20 mM Tris-HCl, 150 mM NaCl, 0.01 mM ethylenediaminetetraacetic acid, 0.1% Tween 20, 1% BSA, [pH 7.5]) for 1 h at room temperature. TcdA was detected with a monoclonal mouse anti-TcdA antibody (PCG4.1, Novus Biologicals) and a rabbit anti-mouse antibody conjugated with alkaline phosphatase. Blots were visualized with a ChemiDoc XRS+ imaging system (Bio-Rad).
Semi-quantitative analysis of TcdA was performed using Image Lab 6.0 software (Bio-Rad). Briefly, after subtracting background noise, peaks corresponding to the target band were selected with the software's Lane Profile tool. The density of each peak generated a value (arbitrary units) that was normalized to the total protein amount of each respective sample. […]

Row | Structure (SMILES) | Activity against dormant versus replicating Mtb-lux (in words) [1] | R/D (MICR/MICD, Mtb-lux) [1] | MIC C. difficile NAP1, previous report [2] | Concentration at which exotoxin production was greatly reduced [3] | Effect on TcdA toxin production ([3]; NAP1 challenged with 0.5×, 0.25×, 0.125× MIC, 48 h, TcdA normalized to total protein)
1 | CO[C@@H]1c2cc(OC(=O)C(C)(C)C)c(O)cc2O[C@@]2(C)CC[C@H]3C(C)(C)CCC[C@]3(C)[C@@H]12 [Compound 19, 15-α-methoxypuupehenol monopivalate] | enhanced activity against dormant Mtb-lux than against replicating Mtb-lux |  |  |  | 
2 | CCC(=O)Oc1cc2c(cc1OC(=O)CC)[C@@H](OC)[C@@H]1[C@@]3(C)CCCC(C)(C)[C@@H]3CC[C@]1(C)O2 [Compound 16] | enhanced activity against dormant Mtb-lux than against replicating Mtb-lux | 4-5 |  |  | 
3 | CC1(C)CCC[C@]2(C)[C@H]3C=C4C=C(O)C(=O)C=C4O[C@@]3(C)CC[C@@H]12 [Compound 1, (+)-Puupehenone] | enhanced activity against dormant Mtb-lux than against replicating Mtb-lux |  | 8.0 µg/mL (≈ 24.4 µM) | 1 to 2 µg/mL | superior to vancomycin in reducing toxin production
4 | CO[C@@H]1c2cc(OC(C)=O)c(OC(C)=O)cc2O[C@@]2(C)CC[C@H]3C(C)(C)CCC[C@]3(C)[C@@H]12 [Compound 15] | enhanced activity against dormant Mtb-lux than against replicating Mtb-lux | 4-5 |  | 1 to 2 µg/mL | 
5 | CCC(=O)Oc1cc2c(cc1OC(=O)CC)[C@@H](OC(=O)CC)[C@@H]1[C@@]3(C)CCCC(C)(C)[C@@H]3CC[C@]1(C)O2 [Compound 21] | enhanced activity against dormant Mtb-lux than against replicating Mtb-lux |  |  |  | 
6 | CC1(C)CCCC2(C)C1CCC(C)(O)C2Cc1ccc(O)c(O)c1 (stereo not shown) [Compound 38] | enhanced activity against dormant Mtb-lux than against replicating Mtb-lux |  |  |  | 
7 | CC(=O)Oc1cc2c(cc1OC(C)=O)[C@@H](OC(C)=O)[C@@H]1[C@@]3(C)CCCC(C)(C)[C@@H]3CC[C@]1(C)O2 [Compound 20, 15-α-acetoxypuupehenol diacetate] | enhanced activity against dormant Mtb-lux than against replicating Mtb-lux |  |  | 1 to 2 µg/mL | 
8 | CC1(C)CCC[C@]2(C)[C@@H]1CC[C@]1(C)Oc3ccc(O)cc3C[C@@H]21 [Compound 31, (+)-Chromazonarol] | enhanced activity against dormant Mtb-lux than against replicating Mtb-lux |  |  |  | 
9 | CC1(C)CCCC2(C)C1CCC(C)(O)C2Cc1ccc(O)cc1 (stereo not shown) [Compound 34] | enhanced activity against dormant Mtb-lux than against replicating Mtb-lux |  |  |  | 
